{
  "source": "paper PMC8844928",
  "molecular_target": "T1, LsrB (UniProt Q92PZ7)",
  "T1 sequence (looked up)": "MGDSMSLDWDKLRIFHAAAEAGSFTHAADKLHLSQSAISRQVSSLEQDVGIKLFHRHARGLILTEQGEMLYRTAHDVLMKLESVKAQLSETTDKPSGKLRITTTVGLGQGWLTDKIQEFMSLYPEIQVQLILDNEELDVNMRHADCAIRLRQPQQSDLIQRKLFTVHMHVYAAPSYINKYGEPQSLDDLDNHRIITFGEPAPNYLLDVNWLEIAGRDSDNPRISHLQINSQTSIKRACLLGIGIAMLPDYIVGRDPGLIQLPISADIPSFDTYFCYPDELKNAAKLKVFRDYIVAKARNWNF",
  "assay": "EMSA",
  "details": "1 uM LsrB, 100 nM probe; EMSA: 100 nM radiolabeled probe, 0 or 1 uM LsrB; recombinant protein; residues 1-302; protein details: N-terminal 10xHis (pET16b, Factor Xa site); label: radiolabeled; probe letters rebuilt from the primers and the genome",
  "note": "Where a protein sequence is shown, tags need not be part of it.",
  "data": [
    {"sequence": "TCTAGAGATGCATCAGCTGAGTGTGGTATGCTGCTTTTTTGGGCTATCGGCAATCATTTAATATGCATGACAGCCATGCCGTTTGCGCATCGCTGCTCATTTTTGCAGCGCACAAGGATTCGGTTTGCGAAGAGCTTCGCTTTCCCTTGAAAAGAGCCGAGGAATAACAAAGGCTTACGCAGGCTTTTGGCAATTGCTCACAAATCGGGCAATTGAACGGATCGTCAGAAGTTCCAGTTTCTCGCTTTAGCGACGATGTAATCGCGGAAGACTTTCAGCTTCGCTGCGTTCTTCAGTTCGTCCGGATAGCAGAAATAGGTATCGAAAGAGGGGATATCGGCGCTTATCGGCAGAATTCGACG (double strand) [PabcR1]", "values": [
      {"measurement": "binding result", "value": "binds"}
    ]}
  ]
}
